Results are given in words; binding and its absence hold for the method and conditions named. Binding seen in cells or lysates may run through a third protein. Here binding means that the protein was enriched with, or labelled near, the bait; the list need not be complete.
Tests used:
[1] = molecular target: TEBP-2::GFP (Telomere-Binding Protein-2, T12E12.3) (C. elegans) (UniProt Q22429); assay: affinity purification with mass spectrometry; IP of TEBP-2::GFP with GFP-trap magnetic agarose beads from embryo and young adult extracts, quadruplicates, quantitative MS; wash buffer 10 mM Tris/HCl pH 7.5, 150 mM NaCl, 0.5 mM EDTA; 4 °C; also with Sm nuclease
[2] = molecular target: TEBP-1::3xFLAG (Telomere-Binding Protein-1, R06A4.2) (C. elegans) (UniProt O62329); assay: affinity purification with mass spectrometry; IP of TEBP-1::3xFLAG with anti-FLAG M2 antibody and Protein G magnetic beads from embryo and young adult extracts, quadruplicates, quantitative MS; wash buffer 25 mM Tris/HCl pH 7.5, 300 mM NaCl, 1.5 mM MgCl2, 1 mM DTT; 4 °C; also with Sm nuclease

binding [1]	binding [2]	Substance
binds	–	TEBP-1::3xFLAG (Telomere-Binding Protein-1, R06A4.2) (from UniProt O62329)
–	binds	TEBP-2::GFP (Telomere-Binding Protein-2, T12E12.3) (from UniProt Q22429)

— publication PMC8113555
